PubChem BioAssay AID743458 | Peter MacCallum Cancer Centre | 2014
In all, the deposit lists about 1,800 reagents; shown is a random part of them. 732 of all reagents (41%) count as active. 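Calls are per siRNA reagent; a gene was deemed confirmed only if most of its four siRNAs scored.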 The numbers tell different reagents against one gene apart. Reagent sequences are not shown.

Purpose: 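Retest earlier hits with independent siRNAs per gene for restoring vorinostat sensitivity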 (follow-up of hits)
Cells: human HCT116-VR colon cancer cells made resistant to vorinostat
Reagent: single siRNA or pool against human genes, 25 nM per single siRNA
Duration: about 72 h after transfection, including 24 h of drug
Conditions: vorinostat, 2.5 µM final, for 24 h
Measured: 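Cell viability by fluorescence and apoptosis by caspase 3/7 luminescence under vorinostat, background-corrected, averaged across two plate copies and given as fold change versus mock transfection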
Scale: viability relative to mock: higher = more living cells than mock; caspase activity relative to mock: higher = more apoptosis than mock
Call rule: 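An siRNA counts as active if classed as reduced viability or as caspase activation, otherwise inactive; a hit class needed wells that remained healthy in the absence of drug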

After knock-down of AQR (GeneID 9716) #1 the results were viability relative to mock 0.36; caspase activity relative to mock 3.69; viability hit class reduced viability; caspase hit class caspase activation; active.
After knock-down of AQR (GeneID 9716) #2, the screen gave viability relative to mock 0.39; caspase activity relative to mock 4.23; viability hit class reduced viability; caspase hit class caspase activation; active.
AQR (GeneID 9716) #3 gave viability relative to mock 0.41; caspase activity relative to mock 3.3; viability hit class reduced viability; caspase hit class caspase activation; active.
Against AQR (GeneID 9716) #4, the entry reads viability relative to mock 0.42; caspase activity relative to mock 3.99; viability hit class reduced viability; caspase hit class caspase activation; active.
Against SYPL2 (GeneID 284612) #1, the entry reads viability relative to mock 0.29; caspase activity relative to mock 4.62; viability hit class reduced viability; caspase hit class caspase activation; active.
With knock-down of SYPL2 (GeneID 284612) #2, the screen gave viability relative to mock 0.88; caspase activity relative to mock 1.62; viability hit class no change; caspase hit class no change; inactive.
Against SYPL2 (GeneID 284612) #3 the deposit lists viability relative to mock 0.82; caspase activity relative to mock 1.94; viability hit class no change; caspase hit class no change; inactive.
Knock-down of SYPL2 (GeneID 284612) #4 resulted in: viability relative to mock 0.76; caspase activity relative to mock 3.23; viability hit class no change; caspase hit class caspase activation; active.
With knock-down of ALOX15 (GeneID 246) #1, the record shows viability relative to mock 0.8; caspase activity relative to mock 2.17; viability hit class no change; caspase hit class no change; inactive.
Knock-down of ALOX15 (GeneID 246) #2 resulted in: viability relative to mock 0.99; caspase activity relative to mock 1.48; viability hit class no change; caspase hit class no change; inactive.
Silencing of ALOX15 (GeneID 246) #3 gave: viability relative to mock 1.03; caspase activity relative to mock 1.12; viability hit class no change; caspase hit class no change; inactive.
For ALOX15 (GeneID 246) #4, the values are viability relative to mock 0.34; caspase activity relative to mock 3.48; viability hit class reduced viability; caspase hit class caspase activation; active.

Active calls, among the entries above:
AQR (GeneID 9716) #1 → viability relative to mock = 0.36; caspase activity relative to mock = 3.69; viability hit class = reduced viability; caspase hit class = caspase activation; outcome = active
AQR (GeneID 9716) #2 → viability relative to mock = 0.39; caspase activity relative to mock = 4.23; viability hit class = reduced viability; caspase hit class = caspase activation; outcome = active
AQR (GeneID 9716) #3 → viability relative to mock = 0.41; caspase activity relative to mock = 3.3; viability hit class = reduced viability; caspase hit class = caspase activation; outcome = active
AQR (GeneID 9716) #4 → viability relative to mock = 0.42; caspase activity relative to mock = 3.99; viability hit class = reduced viability; caspase hit class = caspase activation; outcome = active
SYPL2 (GeneID 284612) #1 → viability relative to mock = 0.29; caspase activity relative to mock = 4.62; viability hit class = reduced viability; caspase hit class = caspase activation; outcome = active
SYPL2 (GeneID 284612) #4 → viability relative to mock = 0.76; caspase activity relative to mock = 3.23; viability hit class = no change; caspase hit class = caspase activation; outcome = active
ALOX15 (GeneID 246) #4 → viability relative to mock = 0.34; caspase activity relative to mock = 3.48; viability hit class = reduced viability; caspase hit class = caspase activation; outcome = active

Additional reagents follow.
Silencing of RNF26 (GeneID 79102) #1 gave: viability relative to mock 1.12; caspase activity relative to mock 1.42; viability hit class no change; caspase hit class no change; inactive.
RNF26 (GeneID 79102) #2 scored viability relative to mock 0.94; caspase activity relative to mock 1.16; viability hit class no change; caspase hit class no change; inactive.
Knock-down of RNF26 (GeneID 79102) #3 came out at: viability relative to mock 1.08; caspase activity relative to mock 2.09; viability hit class no change; caspase hit class no change; inactive.
For RNF26 (GeneID 79102) #4, the values are viability relative to mock 0.77; caspase activity relative to mock 1.78; viability hit class no change; caspase hit class no change; inactive.
For TGM5 (GeneID 9333) #1, the values are viability relative to mock 0.39; caspase activity relative to mock 2.94; viability hit class reduced viability; caspase hit class caspase activation; active.
Against TGM5 (GeneID 9333) #2, the values are viability relative to mock 0.84; caspase activity relative to mock 1.05; viability hit class no change; caspase hit class no change; inactive.
TGM5 (GeneID 9333) #3 scored viability relative to mock 0.79; caspase activity relative to mock 2.57; viability hit class no change; caspase hit class no change; inactive.
TGM5 (GeneID 9333) #4 showed viability relative to mock 0.84; caspase activity relative to mock 3.35; viability hit class no change; caspase hit class caspase activation; active.
After knock-down of ZNF646 (GeneID 9726) #1, the screen gave viability relative to mock 0.66; caspase activity relative to mock 3.19; viability hit class no change; caspase hit class no change; inactive.
Depletion of ZNF646 (GeneID 9726) #2 resulted in: viability relative to mock 1.01; caspase activity relative to mock 1.31; viability hit class no change; caspase hit class no change; inactive.
For ZNF646 (GeneID 9726) #3, the values are viability relative to mock 0.94; caspase activity relative to mock 1.13; viability hit class no change; caspase hit class no change; inactive.
Silencing of ZNF646 (GeneID 9726) #4 resulted in: viability relative to mock 0.98; caspase activity relative to mock 1.18; viability hit class no change; caspase hit class no change; inactive.
